# Measured values: PubChem BioAssay AID2685 (National Center for Advancing Translational Sciences (NCATS), 2010)
# Some of the results follow. Further columns of the screen follow, without active or inactive calls. Compounds called inactive in the main read-out are mostly missing here. Potencies come from curve fits of mixed quality, noted in brackets.
# Assay: qHTS Assay for Lipid Storage Modulators in Drosophila S3 Cells;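 on cell number change: cells counted by Cell Tracker Red CMTPX staining in the red channel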
# Conditions: BODIPY lipid droplet fluorescence, 18-24 h; for cell number change: measured here: cell count max response, cells fed with added oleic acid
# Procedure, shortened: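 Drosophila S3 cells loaded with oleic acid (400 uM, as added) and compounds at several concentrations; lipid droplets imaged by 488-nm laser-scanning cytometry, 500–530 nm intensity and object ratio to cell channel. Percent activity normalized to 20 uM Triacsin C.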
# [1] = measured here: cell number channel AC50, cells fed with added oleic acid
# [2] = measured here: lipid fluorescence (Fed channel) AC50, cells fed with added oleic acid
structure (smiles),measurement,setting,value
Cc1ccc(NC(=O)c2scc3c2CCCC3)cc1,cell number change,,32.6%
same,AC50,[1],"5.8 µM [rising, partial curve]"
same,AC50,[2],"20.6 µM [rising, partial curve]"
Cc1ccc(N2CC(C(=O)N3CCC(C(=O)Nc4nncs4)CC3)CC2=O)cc1 (stereo not given),cell number change,,-5.13%
same,AC50,[2],"0.651 µM [falling, single point]"
Cc1nnc2ccc(-c3ccc(NS(=O)(=O)c4ccc(F)cc4F)cc3)nn12,cell number change,,-38.8%
same,AC50,[1],"13 µM [falling, partial curve]"
CC(C)CN(C(=O)CSc1nnc(-c2ccco2)o1)c1c(N)n(Cc2ccccc2)c(=O)[nH]c1=O,cell number change,,18.6%
same,AC50,[1],"0.366 µM [rising, partial curve, poor fit]"
same,AC50,[2],"1.64 µM [rising, partial curve, poor fit]"
COc1ccc(NC(=O)CSc2nnc(C3CC3)n2C)cc1S(=O)(=O)N1CCCCC1,cell number change,,-9.87%
same,AC50,[2],"4.11 µM [falling, single point]"
O=S(=O)(NCCn1ccc2ccccc21)c1ccccc1,cell number change,,3.43%
same,AC50,[2],"20.6 µM [falling, partial curve]"
N#C/C(=C\c1cccnc1)c1ccc([N+](=O)[O-])cc1,cell number change,,-8.55%
same,AC50,[2],"16.4 µM [falling, single point]"
COc1cc(/C=N/n2c(C3CCCCC3)n[nH]c2=S)ccc1O,cell number change,,12.8%
same,AC50,[2],"3.26 µM [rising, single point]"
Cn1ccnc1Sc1ccc(/C=N/NC(=O)c2ccccc2O)cc1[N+](=O)[O-],cell number change,,-19.3%
CSCCC(NC(N)=O)C(=O)NCc1cccc(Cl)c1 (stereo not given),cell number change,,-47.1%
same,AC50,[1],"3.66 µM [falling, full curve]"
same,AC50,[2],"29.1 µM [falling, single point]"
CN(C)CCCN1CC(=O)N2[C@@H](Cc3c([nH]c4ccccc34)C2(C)C)C1=O,cell number change,,-0.708%
same,AC50,[2],"0.13 µM [rising, full curve, poor fit]"
CSc1c(-c2ccccc2)nc2ccc(Cl)cc2c1C(=O)O,cell number change,,38.9%
same,AC50,[2],"0.13 µM [rising, partial curve, poor fit]"
CN(CCOC(=O)c1ccc2c(c1)OCO2)C(C)(C)C,cell number change,,-2.65%
Cc1cc(NC(=O)CSCC(=O)Nc2nc3c(C)cccc3s2)no1,cell number change,,-67%
same,AC50,[1],"23.1 µM [falling, partial curve]"
same,AC50,[2],"4.61 µM [falling, partial curve]"
COc1ccc(C)c2sc(NC(=O)C3CC3)nc12,cell number change,,4.61%
same,AC50,[2],"0.00517 µM [rising, full curve, poor fit]"
CC(C)C(NC(=O)c1c(F)cccc1F)C(=O)NCc1ccncc1 (stereo not given),AC50,[2],"1.03 µM [rising, full curve, poor fit]"
O=C(Nc1ccc(Nc2ccccc2)cc1)c1ccc(Br)cc1,cell number change,,-46.1%
same,AC50,[1],"16.4 µM [falling, single point]"
O=C(Nc1ccc2nc(-c3cccs3)c(-c3cccs3)nc2c1)NC1CC1,AC50,[2],"0.00517 µM [rising, full curve, poor fit]"
CC1CCCCC1NC(=O)COC(=O)c1ccc(N(C)C)cc1 (stereo not given),cell number change,,4.93%
same,AC50,[2],"1.84 µM [rising, partial curve]"
CCOc1[nH]n(-c2ccc(Cl)cc2)c(=O)c1C=Nc1ccc(Cl)cc1,cell number change,,-25.3%
same,AC50,[2],"32.6 µM [falling, single point]"
CC(NC(=O)c1ccc(Cl)c(Cl)c1)c1ccc(-c2ccccc2)cc1 (stereo not given),cell number change,,-8.37%
same,AC50,[2],"0.146 µM [falling, full curve, poor fit]"
CN1C(c2ccc(F)cc2)=CS/C1=C(\C#N)c1nnc2n1-c1ccccc1SC2,cell number change,,-11.3%
same,AC50,[2],"14.6 µM [rising, single point]"
Cc1ccc(-n2nnc3c(=O)n(CC(=O)N4CCOCC4)cnc32)cc1,cell number change,,-20.3%
same,AC50,[2],"2.06 µM [falling, partial curve, poor fit]"
CCCn1c(N)c(C(=O)COC(=O)CCS(=O)(=O)c2ccc(C)cc2)c(=O)[nH]c1=O,cell number change,,-12.7%
same,AC50,[2],"0.146 µM [rising, full curve, poor fit]"
CN(CC(O)COc1ccc(S(=O)(=O)N2CCOCC2)cc1)C1CCCCC1 (stereo not given),cell number change,,-15.7%
same,AC50,[2],"0.231 µM [falling, full curve, poor fit]"
Brc1ccc(-c2ccc(/C=N/Nc3nncc(-c4ccccc4)n3)o2)cc1,cell number change,,58.8%
same,AC50,[1],"16.4 µM [rising, partial curve]"
same,AC50,[2],"0.651 µM [rising, single point]"
O=C(NCc1ccc(F)cc1)c1cc(S(=O)(=O)N2CCCCC2)ccc1Cl,cell number change,,4.79%
same,AC50,[2],"29.1 µM [falling, single point]"
CCCC1(C(=O)OC)NC(c2ccc(OC)cc2OC)C2C(=O)N(c3cccc(C(C)=O)c3)C(=O)C21 (stereo not given),cell number change,,-9.94%
same,AC50,[2],"29.1 µM [rising, single point]"
CCCC1=NN2C(=N)/C(=C\c3ccc(SCc4ccco4)o3)C(=O)N=C2S1,cell number change,,16.3%
Cc1nc2c(cnn2-c2ccccc2)c(=O)n1/N=C/c1ccccc1,cell number change,,14.5%
same,AC50,[2],"0.13 µM [rising, full curve, poor fit]"

# Retrieved one by one from the list above, 3 records:
structure (smiles),measurement,setting,value
CC1CCCCC1NC(=O)COC(=O)c1ccc(N(C)C)cc1 (stereo not given),AC50,[2],"1.84 µM [rising, partial curve]"
O=C(Nc1ccc(Nc2ccccc2)cc1)c1ccc(Br)cc1,AC50,[1],"16.4 µM [falling, single point]"
O=C(NCc1ccc(F)cc1)c1cc(S(=O)(=O)N2CCCCC2)ccc1Cl,AC50,[2],"29.1 µM [falling, single point]"
